Values from PubChem BioAssay AID1224830 (NIAID, 2016).
Test: 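Genes whose knock-down alters the TNF-alpha reporter response to LPS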 (primary screen). System: human THP-1 monocytic leukaemia cells, TNF dual-luciferase reporter clone, PMA-differentiated to macrophage-like cells. Knock-down reagent: siRNA pool against human genes, 50 nM. Time to read-out: LPS for 4 h, given about 3 days after siRNA transfection. Challenge: bacterial LPS (TLR4 ligand), 10 ng/ml. Detection: 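Ratio of firefly to renilla light, scaled to the plate median and expressed as a robust z-score per replicate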. Direction: TNF reporter robust z-score: higher = stronger TNF reporter response to LPS. Hit rule: 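a well is active when its z-score exceeds 2.8 or falls below -1.5; control wells carry no call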.
Here is an unselected part of about 18,000 reagents tested. About 2,900 of all reagents (16%) were called active. 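Calls are made per well; low scores hint the gene aids the LPS response, high scores that it dampens it.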 Repeated entries: four replicate wells of each siRNA pool.

gene | TNF reporter robust z-score | Outcome
DYNC1I1 | -0.95 | inactive
DYNC1I1 | -1.12 | inactive
DYNC1I1 | -0.82 | inactive
DYNC1I1 | -0.28 | inactive
MMS19 | 0.46 | inactive
MMS19 | -0.5 | inactive
MMS19 | 0.77 | inactive
MMS19 | -0.34 | inactive
CALN1 | -1.47 | inactive
CALN1 | -1.71 | active
CALN1 | 0.91 | inactive
CALN1 | 0.17 | inactive
SPSB1 | -1 | inactive
SPSB1 | 0.07 | inactive
SPSB1 | -0.49 | inactive
SPSB1 | -0.09 | inactive
SH3BGRL | -0.57 | inactive
SH3BGRL | -0.08 | inactive
SH3BGRL | -0.64 | inactive
SH3BGRL | -0.13 | inactive
PXYLP1 | -1.56 | active
PXYLP1 | -1.25 | inactive
PXYLP1 | -0.29 | inactive
PXYLP1 | -0.84 | inactive
NCAPH2 | – | inactive

Next part, starting with the last 2 of the part before.
gene | TNF reporter robust z-score | Outcome
PXYLP1 | -0.84 | inactive
NCAPH2 | – | inactive
PENK | -1.26 | inactive
PENK | -1.17 | inactive
PENK | -1.15 | inactive
PENK | -0.47 | inactive
ENTREP3 | -0.08 | inactive
ENTREP3 | 0.25 | inactive
ENTREP3 | 0.08 | inactive
ENTREP3 | 0.07 | inactive
LBX2 | -1.31 | inactive
LBX2 | -0.53 | inactive
LBX2 | -1.35 | inactive
LBX2 | -0.6 | inactive
DNAJC5 | -0.03 | inactive
DNAJC5 | -0.9 | inactive
DNAJC5 | -0.74 | inactive
DNAJC5 | 0.72 | inactive
TNFSF11 | 1.62 | inactive
TNFSF11 | 1.57 | inactive
TNFSF11 | -0.2 | inactive
TNFSF11 | -0.7 | inactive
